Source: PubChem BioAssay AID2073 (Sanford-Burnham Center for Chemical Genomics, 2009)
In all, about 290,000 compounds went through this assay and about 570 (0.2%) were called active. Inconclusive results, whose numbers are uncertain, are shown with a selection of clear calls. Rule as the data show it: active = inhibition mostly above about 51% (no sharp cut-off); inconclusive = no clear call, values can overlap the other calls; inactive = mostly below about 53%.

By UniProt entry, the sequences of proteins in these tests, tags left out.
UniProt Q00975, whole entry, looked up: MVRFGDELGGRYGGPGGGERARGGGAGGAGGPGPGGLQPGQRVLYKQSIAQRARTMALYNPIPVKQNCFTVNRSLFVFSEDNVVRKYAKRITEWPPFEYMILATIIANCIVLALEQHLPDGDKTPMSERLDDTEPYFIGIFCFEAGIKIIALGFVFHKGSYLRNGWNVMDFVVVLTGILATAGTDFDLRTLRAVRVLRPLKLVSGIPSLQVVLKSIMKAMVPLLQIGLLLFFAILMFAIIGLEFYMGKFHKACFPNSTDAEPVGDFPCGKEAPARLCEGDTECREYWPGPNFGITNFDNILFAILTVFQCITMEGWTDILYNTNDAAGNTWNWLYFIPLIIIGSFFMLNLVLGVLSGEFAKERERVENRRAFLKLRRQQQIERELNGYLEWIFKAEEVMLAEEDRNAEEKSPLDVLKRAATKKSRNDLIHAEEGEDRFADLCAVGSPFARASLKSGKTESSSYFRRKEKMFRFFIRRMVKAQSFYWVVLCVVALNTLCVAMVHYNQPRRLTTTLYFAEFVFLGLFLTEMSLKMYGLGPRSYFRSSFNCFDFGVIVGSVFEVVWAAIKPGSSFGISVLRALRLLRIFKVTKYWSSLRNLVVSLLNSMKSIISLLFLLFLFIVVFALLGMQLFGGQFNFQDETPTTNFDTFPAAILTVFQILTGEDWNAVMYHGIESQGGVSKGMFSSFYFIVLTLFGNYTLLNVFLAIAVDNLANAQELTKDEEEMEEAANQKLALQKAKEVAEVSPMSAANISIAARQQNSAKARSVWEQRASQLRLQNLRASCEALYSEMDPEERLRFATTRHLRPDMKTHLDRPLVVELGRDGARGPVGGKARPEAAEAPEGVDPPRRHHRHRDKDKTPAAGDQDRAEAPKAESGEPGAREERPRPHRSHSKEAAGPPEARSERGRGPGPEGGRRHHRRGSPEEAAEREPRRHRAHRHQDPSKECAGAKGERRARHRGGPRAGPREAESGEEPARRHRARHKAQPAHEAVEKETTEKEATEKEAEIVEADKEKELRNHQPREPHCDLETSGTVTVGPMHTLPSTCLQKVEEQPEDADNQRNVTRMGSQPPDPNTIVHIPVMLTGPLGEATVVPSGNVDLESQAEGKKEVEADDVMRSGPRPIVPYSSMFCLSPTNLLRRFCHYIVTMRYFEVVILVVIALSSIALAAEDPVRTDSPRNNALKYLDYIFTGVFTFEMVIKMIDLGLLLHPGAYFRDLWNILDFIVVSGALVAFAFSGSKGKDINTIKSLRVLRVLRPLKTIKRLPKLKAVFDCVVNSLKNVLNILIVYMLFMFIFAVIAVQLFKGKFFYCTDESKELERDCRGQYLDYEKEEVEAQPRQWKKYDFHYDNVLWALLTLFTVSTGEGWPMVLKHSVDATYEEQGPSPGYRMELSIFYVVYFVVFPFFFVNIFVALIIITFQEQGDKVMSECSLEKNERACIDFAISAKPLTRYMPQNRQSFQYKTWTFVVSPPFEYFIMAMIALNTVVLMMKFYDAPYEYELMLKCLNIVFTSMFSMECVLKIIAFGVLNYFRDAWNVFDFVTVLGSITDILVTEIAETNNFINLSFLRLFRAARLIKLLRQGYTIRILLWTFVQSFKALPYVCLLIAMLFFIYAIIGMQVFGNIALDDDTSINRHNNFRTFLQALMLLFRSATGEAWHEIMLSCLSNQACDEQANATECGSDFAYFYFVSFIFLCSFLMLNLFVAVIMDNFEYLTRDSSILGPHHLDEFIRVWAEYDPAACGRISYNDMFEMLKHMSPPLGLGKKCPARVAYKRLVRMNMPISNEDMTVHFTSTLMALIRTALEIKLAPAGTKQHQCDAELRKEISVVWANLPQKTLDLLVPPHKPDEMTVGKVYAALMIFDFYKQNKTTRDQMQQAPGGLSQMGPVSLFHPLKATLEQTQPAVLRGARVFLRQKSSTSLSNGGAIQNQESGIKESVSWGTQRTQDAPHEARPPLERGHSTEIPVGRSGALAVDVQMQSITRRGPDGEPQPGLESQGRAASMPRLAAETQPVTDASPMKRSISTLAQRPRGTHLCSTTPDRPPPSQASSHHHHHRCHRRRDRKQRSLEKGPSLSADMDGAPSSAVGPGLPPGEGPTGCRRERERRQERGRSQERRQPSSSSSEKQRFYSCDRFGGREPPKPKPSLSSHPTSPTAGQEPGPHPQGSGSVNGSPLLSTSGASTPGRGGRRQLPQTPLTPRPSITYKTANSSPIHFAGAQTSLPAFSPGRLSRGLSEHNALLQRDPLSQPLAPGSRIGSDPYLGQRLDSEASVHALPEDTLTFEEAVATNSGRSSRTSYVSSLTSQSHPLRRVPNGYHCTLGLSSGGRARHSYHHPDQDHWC

target: Voltage-dependent N-type calcium channel subunit alpha-1B (Homo sapiens) (UniProt Q00975); test: disruptors of CaV2.2 binding to Mint1 – biochemical, HTRF (AID 2073); conditions: HTRF protein-protein interaction, Mint1-CaV2.2; at 20 µM; hits give high values

Row | Structure (SMILES) | inhibition
1 | Cn1nnc2cc(NC(=O)N3CCN(c4ccccn4)CC3)ccc21 | inactive: -0.5%
2 | COC(=O)c1ccc(/C=C(\C#N)c2nc3ccccc3s2)cc1 | inconclusive: 64%
3 | COc1ccc(C)cc1-n1c(SCC(=O)Nc2cc(C)on2)nc2ccccc2c1=O | inconclusive: 54.3%
4 | COc1ccc(-c2nc(NC(=O)CSCCO)sc2C)cc1 | inconclusive: 55%
5 | CCOC(=O)c1nn(-c2ccc3c(c2)CCN3C(C)=O)cc1O | inconclusive: 53.1%
6 | O=C(Nc1nnc(C2CC2)s1)c1cc(Cl)sc1Cl | inconclusive: 90.2%
7 | COc1cc2c(cc1OC)N1C(=O)CC(OCC(=O)O)C3C4CC5(CCN5C(=O)C4=O)C2C31 (stereo unspecified) | inconclusive: 85.5%
8 | c1ccc2nc(-c3ccc(N4CCOCC4)cc3)ccc2c1 | inconclusive: 72.9%
9 | Cn1c(-n2c(-c3ccco3)nc3ccccc3c2=O)nc2ccccc21 | inconclusive: 61%
10 | COc1ccc(-c2noc(N3CCC(C(=O)Nc4ccccc4Cl)CC3)n2)cc1 | inactive: 1.9%
11 | CCC(=O)c1ccc(OCC(O)CN2CCc3ccccc3C2)cc1 (stereo unspecified) | inconclusive: 85.3%
12 | Nc1ccc2nc(-c3ccccc3)[nH]c2c1 | inconclusive: 59.6%
13 | CCOc1ccc(S(=O)(=O)c2c(C(=O)c3ccc(C)cc3)cnc3cc4c(cc23)OCCO4)cc1 | inconclusive: 62.1%
14 | O=C(Nc1ccc2oc(-c3ccccc3)nc2c1)c1ccco1 | inconclusive: 68%
15 | CCOCCCNC(=O)C(c1ccccc1)N(Cc1cccs1)C(=O)CNC(=O)c1ccccc1 (stereo unspecified) | inconclusive: 57.8%
16 | CN(C)c1ccc(/C=N/NC(=O)c2nnn(-c3nonc3N)c2COc2ccc(F)cc2)cc1 | inconclusive: 66.2%
17 | CCCCn1ccnc1C | inactive: -1.1%
18 | COc1cccc(OCC(=O)Nc2ccc(OC)c(OC)c2)c1 | inconclusive: 52.3%
19 | CCn1c(=N)n(CC(=O)C23CC4CC(CC(C4)C2)C3)c2ccccc21 | inconclusive: 71.1%

Four structures already listed, sorted by length of the SMILES, high to low:
Row | Structure (SMILES) | inhibition
13 | CCOc1ccc(S(=O)(=O)c2c(C(=O)c3ccc(C)cc3)cnc3cc4c(cc23)OCCO4)cc1 | inconclusive: 62.1%
7 | COc1cc2c(cc1OC)N1C(=O)CC(OCC(=O)O)C3C4CC5(CCN5C(=O)C4=O)C2C31 (stereo unspecified) | inconclusive: 85.5%
10 | COc1ccc(-c2noc(N3CCC(C(=O)Nc4ccccc4Cl)CC3)n2)cc1 | inactive: 1.9%
14 | O=C(Nc1ccc2oc(-c3ccccc3)nc2c1)c1ccco1 | inconclusive: 68%

(continued)

Row | Structure (SMILES) | inhibition
20 | Cc1ccc(-c2nc(C=Nc3ccccc3)c(O)o2)cc1 | inactive: -6.2%
21 | COc1ccc(S(=O)(=O)NCC(=O)O)cc1C(=O)NC1CCCCC1 | inconclusive: 68%
22 | Clc1ccc(-n2nnnc2SCc2cn3ccccc3n2)cc1 | inactive: -7.5%
23 | Cc1[nH]cnc1C(=O)N/N=C/c1ccc([N+](=O)[O-])s1 | inactive: -7.6%
24 | O=C(O)c1ccc(-c2ccc(/C=c3/sc4nc5ccccc5n4c3=O)o2)cc1Cl | inactive: 28.8%
25 | O=C1N/C(=C/c2ccc(N3CCOCC3)o2)C(=O)N1c1ccccc1 | inactive: 44.8%
26 | COCCn1cnc2c1c(=O)n(CC(=O)O)c(=O)n2Cc1ccccc1 | inconclusive: 51.3%
27 | O=C(Nc1ccc(S(=O)(=O)N2CCOCC2)cc1)C1CCCCC1 | inconclusive: 73.3%
28 | COCCNC(=O)/C(C#N)=c1\s/c(=C\c2ccccc2OC(F)F)c(=O)n1Cc1ccccc1 | inconclusive: 77.8%
29 | CCC(C)/C=C/C1=CC2=C(Cl)C(=O)C3(C)OC(=O)C(C(=O)C(C)C(C)O)C3C2=CO1 (stereo unspecified) | inconclusive: 83%
30 | COc1ccc(C2/C(=C(/O)c3ccc4c(c3)CC(C)O4)C(=O)C(=O)N2CCN2CCOCC2)cc1 (stereo unspecified) | inconclusive: 59.3%
31 | COc1cc([N+](=O)[O-])cc(/C=N/NC(=O)c2ccc(NC(=O)c3ccc(C)cc3)cc2)c1O | inconclusive: 58.2%
32 | Cc1cc(C(=O)OCC(=O)Nc2nccs2)c2ccccc2n1 | inconclusive: 56.1%
33 | CCc1ccccc1NC(=O)COc1ccc(N2CC(C(N)=O)CC2=O)cc1 (stereo unspecified) | inactive: 11.4%
34 | Cc1cccc(-c2n[nH]c(=S)n2-c2ccccc2)c1[N+](=O)[O-] | inconclusive: 79.6%
35 | COc1ccc(NC(=O)C2=NN(C3CCS(=O)(=O)C3)C(=O)CC2)cn1 (stereo unspecified) | inconclusive: 53.9%
36 | CCn1c(COc2ccccc2Cl)nnc1SCC(=O)Nc1ncccc1C | inconclusive: 67.1%
37 | O=C(/C=C/c1ccc(Cl)cc1)N(Cc1ccccc1)c1ccccn1 | inactive: 22.8%
38 | COc1ccc2oc(=O)c(-c3nnc(NCc4ccco4)s3)cc2c1 | inconclusive: 85.5%

Row | Structure (SMILES) | inhibition
39 | Cn1c(-c2ccco2)nc2cc3ccccc3cc21 | inconclusive: 63.1%
40 | O=C(Nc1ccc(Cl)cc1C(=O)Nc1ccncc1)c1ccco1 | inconclusive: 74.7%
41 | CCOc1cc(C2CC(=O)NC(SCC)=C2C#N)ccc1O (stereo unspecified) | inactive: 5.2%
42 | CCCN(CCC)C(=O)Cn1c(=O)n(CCCCCC(=O)Nc2ccccc2)c(=O)c2sccc21 | inconclusive: 53%
43 | O=C(CS(=O)(=O)c1ccccc1)NCc1ccco1 | inconclusive: 54.3%
44 | Cc1ccc(-c2cc(C(=O)NCc3cn(C)nc3C)c3cc(Br)ccc3n2)cc1 | inconclusive: 50.7%
45 | CN1CCN(Cc2c(O)ccc3cc(-c4ccccn4)c(=O)oc23)CC1 | inconclusive: 60.2%
46 | O=C(c1cccs1)N1CCN=C1SCc1cccnc1 | inactive: -1.3%
47 | N#Cc1c(-c2ccccc2)cc(-c2ccco2)c(C#N)c1N | active: 53.5%
48 | CCCNC(=O)OC[C@H]1O[C@H](CCO/N=C/c2ccc(C(=O)N3[C@H](c4ccc(C)cc4)[C@@H](C)CC[C@H]3C(=O)OC)cc2)C=C[C@@H]1Oc1ccc(OC)cc1 | inactive: 6.9%
49 | O=C(/C=C\c1ccco1)c1ccc(NC(=O)c2ccco2)cc1 | inactive: 68.1%
50 | Cc1cc(N2CCCCC2)c(F)cc1[N+](=O)[O-] | inconclusive: 82.3%
51 | CCOC(=O)c1sc2nc3c(SCCC#N)cc(C(=O)c4cc(F)ccc4O)cn3c(=O)c2c1C | inactive: 43.6%
52 | O=c1oc2ccccc2c(O)c1C=Nc1cccnc1 | inconclusive: 62.9%
53 | CC(=O)c1cccc(N(CC(=O)NC2CCCCC2)C(=O)Cn2nnc(-c3ccccc3)n2)c1 | inconclusive: 71.9%
54 | CNC(=O)COC(=O)/C=C/c1cn(-c2ccccc2)nc1-c1ccc(C)o1 | inconclusive: 71.7%
55 | Cc1ccc(C(=O)NC(Cc2c[nH]c3ccccc23)C(=O)O)cc1 (stereo unspecified) | inconclusive: 52.6%
56 | COc1cccc(-c2cc(=O)c3cc(NC(=O)c4ccc(N(C)C)cc4)ccc3[nH]2)c1 | inconclusive: 61.4%
